Patent US20050222029A1
Results are given in words; binding and its absence hold for the method and conditions named. Some binding calls cover weakened binding; strength is not graded here.

Amino acid sequences for entries named in this document (tags omitted). A change or cut given only in a name is not applied to a line headed by its entry. Residues count along the entry.
UniProt P48668, residues 373-444: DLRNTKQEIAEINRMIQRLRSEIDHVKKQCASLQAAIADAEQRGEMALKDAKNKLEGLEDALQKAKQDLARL
UniProt Q15075, residues 872-1039: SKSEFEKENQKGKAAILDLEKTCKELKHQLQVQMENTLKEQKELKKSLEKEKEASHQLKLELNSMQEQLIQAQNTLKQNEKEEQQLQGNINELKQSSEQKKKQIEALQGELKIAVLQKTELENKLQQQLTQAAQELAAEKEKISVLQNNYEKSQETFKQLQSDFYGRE
E6-AP ubiquitin-protein ligase (UBE3A) 636-861 (Q05086, residues 636-861): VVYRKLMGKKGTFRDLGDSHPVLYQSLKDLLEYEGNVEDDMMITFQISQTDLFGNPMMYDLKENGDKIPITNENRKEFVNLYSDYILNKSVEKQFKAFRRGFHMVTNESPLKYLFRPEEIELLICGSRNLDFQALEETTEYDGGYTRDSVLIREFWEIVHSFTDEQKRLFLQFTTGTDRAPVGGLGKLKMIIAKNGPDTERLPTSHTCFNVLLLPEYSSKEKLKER
E6-AP ubiquitin-protein ligase (UBE3A) 705-861 (Q05086, residues 705-861): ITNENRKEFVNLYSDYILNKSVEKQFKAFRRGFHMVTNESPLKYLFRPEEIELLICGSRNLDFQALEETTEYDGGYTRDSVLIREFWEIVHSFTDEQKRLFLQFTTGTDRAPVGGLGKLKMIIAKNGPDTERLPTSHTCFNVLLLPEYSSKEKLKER
E6-AP ubiquitin-protein ligase (UBE3A) 720-861 (Q05086, residues 720-861): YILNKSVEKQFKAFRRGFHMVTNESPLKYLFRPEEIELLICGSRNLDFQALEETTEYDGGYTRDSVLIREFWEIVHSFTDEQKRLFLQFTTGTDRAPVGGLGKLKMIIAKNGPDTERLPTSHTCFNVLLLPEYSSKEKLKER
UniProt Q99816: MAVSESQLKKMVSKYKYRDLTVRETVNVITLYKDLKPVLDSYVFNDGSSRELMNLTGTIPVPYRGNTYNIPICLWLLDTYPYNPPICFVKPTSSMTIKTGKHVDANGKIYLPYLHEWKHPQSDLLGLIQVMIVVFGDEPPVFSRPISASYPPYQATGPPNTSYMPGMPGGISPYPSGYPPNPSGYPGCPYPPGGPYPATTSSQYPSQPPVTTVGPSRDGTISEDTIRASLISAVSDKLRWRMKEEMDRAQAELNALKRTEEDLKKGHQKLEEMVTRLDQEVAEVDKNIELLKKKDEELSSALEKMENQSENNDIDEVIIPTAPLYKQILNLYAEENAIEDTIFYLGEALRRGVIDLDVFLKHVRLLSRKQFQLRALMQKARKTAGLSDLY
UniProt P35916, residues 791-1177: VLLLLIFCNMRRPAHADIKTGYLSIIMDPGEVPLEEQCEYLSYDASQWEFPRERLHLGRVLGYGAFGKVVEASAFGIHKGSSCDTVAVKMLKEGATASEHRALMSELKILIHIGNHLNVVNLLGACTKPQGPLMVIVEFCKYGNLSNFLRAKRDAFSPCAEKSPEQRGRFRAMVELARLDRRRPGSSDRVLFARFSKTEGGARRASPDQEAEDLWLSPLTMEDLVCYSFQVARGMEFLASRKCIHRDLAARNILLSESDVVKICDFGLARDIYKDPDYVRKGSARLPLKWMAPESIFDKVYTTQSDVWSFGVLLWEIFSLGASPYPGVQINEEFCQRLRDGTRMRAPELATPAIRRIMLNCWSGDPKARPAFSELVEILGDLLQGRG
UniProt O15392, residues 47-142: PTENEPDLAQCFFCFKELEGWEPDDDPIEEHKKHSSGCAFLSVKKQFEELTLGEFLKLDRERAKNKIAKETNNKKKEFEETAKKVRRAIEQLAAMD

What was measured:
[1] = target: T1, Keratin 5 9-171 (human) (UniProt P13647); assay: yeast two-hybrid
T1 sequence (looked up): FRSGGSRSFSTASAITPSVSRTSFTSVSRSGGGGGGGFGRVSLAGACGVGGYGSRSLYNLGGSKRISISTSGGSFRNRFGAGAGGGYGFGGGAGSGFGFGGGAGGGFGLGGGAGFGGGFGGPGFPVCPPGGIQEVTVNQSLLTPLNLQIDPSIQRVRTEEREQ

[2] = target: T2, Hook2 132-428 (human) (UniProt Q96ED9); assay: yeast two-hybrid, breast and prostate cancer library
T2 sequence (looked up): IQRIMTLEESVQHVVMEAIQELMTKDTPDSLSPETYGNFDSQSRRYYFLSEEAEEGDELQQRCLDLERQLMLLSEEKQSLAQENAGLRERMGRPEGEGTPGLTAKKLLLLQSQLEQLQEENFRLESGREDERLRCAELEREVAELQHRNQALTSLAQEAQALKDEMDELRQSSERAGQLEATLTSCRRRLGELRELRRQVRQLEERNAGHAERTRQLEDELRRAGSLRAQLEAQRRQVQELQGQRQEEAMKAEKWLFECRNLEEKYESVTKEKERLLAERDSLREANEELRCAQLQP

[3] = target: Keratin 6C 373-444 (human) (UniProt P48668); assay: yeast two-hybrid
[4] = target: T3, Catenin (GenBank U96136) 684-1148 (human) (UniProt Q9UQB3); assay: yeast two-hybrid
T3 sequence (looked up): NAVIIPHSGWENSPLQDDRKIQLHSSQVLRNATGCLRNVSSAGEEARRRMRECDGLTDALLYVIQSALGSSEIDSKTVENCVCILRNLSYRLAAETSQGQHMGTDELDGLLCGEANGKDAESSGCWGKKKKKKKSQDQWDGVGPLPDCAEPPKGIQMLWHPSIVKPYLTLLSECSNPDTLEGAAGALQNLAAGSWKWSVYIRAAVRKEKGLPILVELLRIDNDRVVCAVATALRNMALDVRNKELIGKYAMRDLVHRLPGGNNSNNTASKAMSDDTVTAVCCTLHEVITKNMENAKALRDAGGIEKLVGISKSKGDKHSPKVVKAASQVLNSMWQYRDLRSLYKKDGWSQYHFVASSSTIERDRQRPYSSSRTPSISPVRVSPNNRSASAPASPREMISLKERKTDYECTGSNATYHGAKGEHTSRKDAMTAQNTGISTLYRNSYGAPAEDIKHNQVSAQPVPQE

[5] = target: Endosome-associated protein 1 872-1039 (human) (UniProt Q15075); assay: yeast two-hybrid
[6] = target: T4, phospholipase C gamma 1 (PLCG1) 445-757 (human) (UniProt P19174); assay: yeast two-hybrid
T4 sequence (looked up): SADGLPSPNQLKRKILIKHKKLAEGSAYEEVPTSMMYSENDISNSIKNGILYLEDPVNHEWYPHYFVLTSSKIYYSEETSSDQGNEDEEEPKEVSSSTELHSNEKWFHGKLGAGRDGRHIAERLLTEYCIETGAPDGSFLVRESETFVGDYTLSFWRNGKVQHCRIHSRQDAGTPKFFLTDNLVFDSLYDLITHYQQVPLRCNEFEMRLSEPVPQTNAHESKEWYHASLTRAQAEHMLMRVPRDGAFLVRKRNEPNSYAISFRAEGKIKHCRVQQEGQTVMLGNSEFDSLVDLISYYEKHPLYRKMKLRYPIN

[7] = target: T5, phospholipase C gamma 1 (PLCG1) 505-772 (human) (UniProt P19174); assay: yeast two-hybrid
T5 sequence (looked up): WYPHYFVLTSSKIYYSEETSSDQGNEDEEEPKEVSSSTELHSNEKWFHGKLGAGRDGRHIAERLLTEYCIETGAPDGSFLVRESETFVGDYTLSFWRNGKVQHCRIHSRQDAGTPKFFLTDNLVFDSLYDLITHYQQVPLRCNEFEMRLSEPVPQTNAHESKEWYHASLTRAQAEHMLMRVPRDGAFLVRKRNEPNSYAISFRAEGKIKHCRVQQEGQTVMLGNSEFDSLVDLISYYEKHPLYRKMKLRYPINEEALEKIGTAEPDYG

[8] = target: E6-AP ubiquitin-protein ligase (UBE3A) 636-861 (human) (UniProt Q05086); assay: yeast two-hybrid
[9] = target: E6-AP ubiquitin-protein ligase (UBE3A) 720-861 (human) (UniProt Q05086); assay: yeast two-hybrid
[10] = target: E6-AP ubiquitin-protein ligase (UBE3A) 705-861 (human) (UniProt Q05086); assay: yeast two-hybrid
[11] = target: T6, Synaptic nuclei expressed gene 1, alt. Transcript beta (3321) (SYNE-1) 1093-1249 (human); assay: yeast two-hybrid
T6 sequence: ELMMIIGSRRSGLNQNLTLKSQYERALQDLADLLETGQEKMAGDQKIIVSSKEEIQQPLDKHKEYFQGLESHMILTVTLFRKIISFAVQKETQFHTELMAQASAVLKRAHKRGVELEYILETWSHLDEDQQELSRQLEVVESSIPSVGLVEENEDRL

[12] = target: T7, p53-induced protein 7 (PIG7) 1-106 (human) (UniProt Q99732); assay: yeast two-hybrid
T7 sequence (looked up): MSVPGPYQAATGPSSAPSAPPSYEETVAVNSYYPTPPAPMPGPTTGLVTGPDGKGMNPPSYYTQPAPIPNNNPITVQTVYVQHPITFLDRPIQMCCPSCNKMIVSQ

[13] = target: T8, Golgin-67 68-228 (human) (UniProt A8MQT2); assay: yeast two-hybrid, spleen library
T8 sequence (looked up): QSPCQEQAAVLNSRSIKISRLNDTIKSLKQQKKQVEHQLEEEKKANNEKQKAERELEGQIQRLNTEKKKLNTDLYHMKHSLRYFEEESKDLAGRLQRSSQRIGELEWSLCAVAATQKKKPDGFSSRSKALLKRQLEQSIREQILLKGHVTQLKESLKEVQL

[14] = target: T9, Kinectin 851-1110 (human) (UniProt Q86UP2); assay: yeast two-hybrid, brain library
T9 sequence (looked up): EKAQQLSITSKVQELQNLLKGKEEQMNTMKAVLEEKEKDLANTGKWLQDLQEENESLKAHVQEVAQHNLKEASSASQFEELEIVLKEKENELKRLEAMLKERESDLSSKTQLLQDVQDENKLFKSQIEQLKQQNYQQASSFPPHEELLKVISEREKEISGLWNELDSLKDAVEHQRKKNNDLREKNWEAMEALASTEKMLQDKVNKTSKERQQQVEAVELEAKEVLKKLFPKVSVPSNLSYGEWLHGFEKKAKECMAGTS

[15] = target: T10, GrpE-Like protein cochaperone (PN19062) 55-79 (human); assay: yeast two-hybrid, macrophage library
T10 sequence: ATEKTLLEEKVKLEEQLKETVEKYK

[16] = target: T11, Kinectin 851-1113 (human) (UniProt Q86UP2); assay: yeast two-hybrid
T11 sequence (looked up): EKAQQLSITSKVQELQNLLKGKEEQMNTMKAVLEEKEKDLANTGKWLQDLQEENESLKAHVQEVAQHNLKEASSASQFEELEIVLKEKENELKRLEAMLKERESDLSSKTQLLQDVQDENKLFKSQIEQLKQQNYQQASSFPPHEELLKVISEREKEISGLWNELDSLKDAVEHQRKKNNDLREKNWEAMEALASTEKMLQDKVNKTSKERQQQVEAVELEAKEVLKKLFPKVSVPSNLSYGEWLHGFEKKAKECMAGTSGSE

[17] = target: T8, Golgin-67 68-228 (human); assay: yeast two-hybrid
[18] = target: T9, Kinectin 851-1110 (human); assay: yeast two-hybrid
[19] = target: T10, GrpE-Like protein cochaperone (PN19062) 55-79 (human); assay: yeast two-hybrid
[20] = target: T12, Kinectin 854-1110 (human) (UniProt Q86UP2); assay: yeast two-hybrid
T12 sequence (looked up): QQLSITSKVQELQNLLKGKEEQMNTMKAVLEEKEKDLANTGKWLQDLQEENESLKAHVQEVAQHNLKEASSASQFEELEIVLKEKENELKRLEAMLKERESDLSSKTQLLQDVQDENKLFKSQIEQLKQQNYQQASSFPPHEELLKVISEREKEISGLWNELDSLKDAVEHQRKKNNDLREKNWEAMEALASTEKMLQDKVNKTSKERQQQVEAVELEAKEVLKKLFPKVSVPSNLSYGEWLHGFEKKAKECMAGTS

[21] = target: T13, Death associated protein 5 (DAP5) 16-157 (human) (UniProt P78344); assay: yeast two-hybrid, macrophage library
T13 sequence (looked up): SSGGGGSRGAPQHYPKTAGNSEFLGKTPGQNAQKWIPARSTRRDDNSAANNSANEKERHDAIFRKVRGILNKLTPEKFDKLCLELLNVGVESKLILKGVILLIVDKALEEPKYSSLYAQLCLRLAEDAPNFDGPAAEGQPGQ

[22] = target: T13, Death associated protein 5 (DAP5) 16-157 (human); assay: yeast two-hybrid
[23] = target: T14, Beta-prime subunit of coatomer complex (COPP) 7796-906 (so in the source) (human) (UniProt P35606); assay: yeast two-hybrid
T14 sequence (looked up): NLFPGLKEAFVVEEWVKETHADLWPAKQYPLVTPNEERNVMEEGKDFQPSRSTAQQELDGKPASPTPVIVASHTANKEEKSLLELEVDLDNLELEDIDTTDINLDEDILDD

## Tumor Suppressor (TSG101) 1-157 (from UniProt Q99816 1-157)
[1]
  binding: binds

## Tumor Suppressor (TSG101) 240-391 (from UniProt Q99816 240-390)
[2]
  binding: binds
[3]
  binding: binds
[4]
  binding: binds
[5]
  binding: binds

## FMS-Related Tyrosine Kinase 4 (FLT4) 791-177 (as printed) (from UniProt P35916 791-1177) (receptor)
[6]
  binding: binds
[7]
  binding: binds
[8]
  binding: binds
[9]
  binding: binds
[10]
  binding: binds

## Tumor Suppressor (TSG101) 12-326 (from UniProt Q99816 12-326)
[11]
  binding: binds

## Tumor Suppressor (TSG101) 1-274 (from UniProt Q99816 1-274)
[12]
  binding: binds

## Tumor Suppressor (TSG101) 231-391 (from UniProt Q99816 231-390)
[13]
  binding: binds
[14]
  binding: binds
[15]
  binding: binds
[16]
  binding: binds
[17]
  binding: binds
[18]
  binding: binds
[19]
  binding: binds
[20]
  binding: binds

## Tumor Suppressor (TSG101) 265-391 (from UniProt Q99816 265-390)
[21]
  binding: binds
[22]
  binding: binds

## Survivin (BIRC5) 47-143 (from UniProt O15392 47-142)
[23]
  binding: binds
